Experimental data from patent US20110229981A1.
These are yes or no findings as the source states them, for the method shown. Some binding calls cover weakened binding; strength is not graded here.

Sequences of proteins named here, by UniProt entry; tags and fusion partners are left off. A change or cut given only in a name is not applied to a line headed by its entry. Residues count along the entry.
UniProt Q9HCN6: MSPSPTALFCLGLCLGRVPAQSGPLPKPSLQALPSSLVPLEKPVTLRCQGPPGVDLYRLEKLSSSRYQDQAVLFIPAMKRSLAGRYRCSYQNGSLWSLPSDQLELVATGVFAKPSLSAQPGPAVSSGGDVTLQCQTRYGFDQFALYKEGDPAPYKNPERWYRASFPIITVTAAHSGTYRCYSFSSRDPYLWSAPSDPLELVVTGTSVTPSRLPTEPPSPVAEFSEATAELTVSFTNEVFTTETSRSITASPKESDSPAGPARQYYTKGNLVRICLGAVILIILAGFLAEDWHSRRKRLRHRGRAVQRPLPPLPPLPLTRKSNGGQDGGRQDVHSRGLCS
recombinant GPVI dimers: residues 21-269 of Q9HCN6
shed GPVI (soluble GPVI in plasma): residues 21-267 of Q9HCN6

Tests used:
[1] = target: shed GPVI (soluble GPVI in plasma) (human) (UniProt Q9HCN6); assay: cytometric bead assay, antibody-coupled bead captures, fluorescent convulxin detects
[2] = target: recombinant GPVI monomers (UniProt Q9HCN6); assay: cytometric bead assay, anti-GPVI bead (3j24.2 or 9O12.2) captures, fluorescent convulxin detects
recombinant GPVI dimers = recombinant GPVI dimers (UniProt Q9HCN6); assay: as above

Measured: binding

B1: convulxin, fluorescently labeled (ligand)
chain 1: GLHCPSDWYYYDQHCYRIFNEEMNWEDAEWFCTKQAKGAHLVSIKSAKEADFVAWMVTQNIEESFSHVSIGLRVQNKEKQCSTKWSDGSSVSYDNLLDLYITKCSLLKKETGFRKWFVASCIGKIPFVCKFPPQC
chain 2: GFCCPSHWSSYDRYCYKVFKQEMTWADAEKFCTQQHTGSHLVSFHSTEEVDFVVKMTHQSLKSTFFWIGANNIWNKCNWQWSDGTKPEYKEWHEEFECLISRTFDNQWLSAPCSDTYSFVCKFEA
modifications: fluorescent label, site not stated
binds: all assays above
